The text below walks through data of paper PMC4396695, “Structure of the Ribosomal Oxygenase OGFOD1 Provides Insights into the Regio- and Stereoselectivity of Prolyl Hydroxylases” (Structure(London, England:1993), 2015).

The target in the assay is T1, OGFOD1 (human uS12 prolyl 3-hydroxylase) (human), Q8N543.
T1 chain: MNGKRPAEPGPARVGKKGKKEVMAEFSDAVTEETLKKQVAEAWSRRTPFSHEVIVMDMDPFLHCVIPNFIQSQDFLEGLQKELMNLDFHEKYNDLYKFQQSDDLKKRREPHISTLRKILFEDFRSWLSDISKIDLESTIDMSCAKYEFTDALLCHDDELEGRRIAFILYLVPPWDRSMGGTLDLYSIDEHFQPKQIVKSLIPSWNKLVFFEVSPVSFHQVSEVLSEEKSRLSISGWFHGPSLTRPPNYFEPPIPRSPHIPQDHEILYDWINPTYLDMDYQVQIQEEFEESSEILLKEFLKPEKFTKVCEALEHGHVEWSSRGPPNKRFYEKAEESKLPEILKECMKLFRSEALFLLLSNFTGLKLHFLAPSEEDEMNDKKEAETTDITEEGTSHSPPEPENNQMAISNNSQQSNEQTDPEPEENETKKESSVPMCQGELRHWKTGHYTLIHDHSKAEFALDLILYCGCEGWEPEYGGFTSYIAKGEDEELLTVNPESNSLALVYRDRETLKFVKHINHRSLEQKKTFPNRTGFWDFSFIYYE
Kind of assay: native gel or EMSA; non-denaturing PAGE of OGFOD1 and of Tpa1p, each run alone; conditions not given; both purified. The note with it: remark: other sources report otherwise.

These are yes or no findings as the source states them, for the method shown.

B1: OGFOD1 (human uS12 prolyl 3-hydroxylase), Q8N543 1-542 (enzyme)
chain: T1 chain
Regarding B1, the binding result is reported as “no binding”.
